Measured values as given in US20040126819A1.
No constants are given. Whether binding was seen depends on the method and setting. Some entries that bind do so weakly or less than the wild type.

Protein sequences, listed by entry. Tags and fused reporters are not part of them. Residues count along the entry.
UniProt P35546, residues 29-1115: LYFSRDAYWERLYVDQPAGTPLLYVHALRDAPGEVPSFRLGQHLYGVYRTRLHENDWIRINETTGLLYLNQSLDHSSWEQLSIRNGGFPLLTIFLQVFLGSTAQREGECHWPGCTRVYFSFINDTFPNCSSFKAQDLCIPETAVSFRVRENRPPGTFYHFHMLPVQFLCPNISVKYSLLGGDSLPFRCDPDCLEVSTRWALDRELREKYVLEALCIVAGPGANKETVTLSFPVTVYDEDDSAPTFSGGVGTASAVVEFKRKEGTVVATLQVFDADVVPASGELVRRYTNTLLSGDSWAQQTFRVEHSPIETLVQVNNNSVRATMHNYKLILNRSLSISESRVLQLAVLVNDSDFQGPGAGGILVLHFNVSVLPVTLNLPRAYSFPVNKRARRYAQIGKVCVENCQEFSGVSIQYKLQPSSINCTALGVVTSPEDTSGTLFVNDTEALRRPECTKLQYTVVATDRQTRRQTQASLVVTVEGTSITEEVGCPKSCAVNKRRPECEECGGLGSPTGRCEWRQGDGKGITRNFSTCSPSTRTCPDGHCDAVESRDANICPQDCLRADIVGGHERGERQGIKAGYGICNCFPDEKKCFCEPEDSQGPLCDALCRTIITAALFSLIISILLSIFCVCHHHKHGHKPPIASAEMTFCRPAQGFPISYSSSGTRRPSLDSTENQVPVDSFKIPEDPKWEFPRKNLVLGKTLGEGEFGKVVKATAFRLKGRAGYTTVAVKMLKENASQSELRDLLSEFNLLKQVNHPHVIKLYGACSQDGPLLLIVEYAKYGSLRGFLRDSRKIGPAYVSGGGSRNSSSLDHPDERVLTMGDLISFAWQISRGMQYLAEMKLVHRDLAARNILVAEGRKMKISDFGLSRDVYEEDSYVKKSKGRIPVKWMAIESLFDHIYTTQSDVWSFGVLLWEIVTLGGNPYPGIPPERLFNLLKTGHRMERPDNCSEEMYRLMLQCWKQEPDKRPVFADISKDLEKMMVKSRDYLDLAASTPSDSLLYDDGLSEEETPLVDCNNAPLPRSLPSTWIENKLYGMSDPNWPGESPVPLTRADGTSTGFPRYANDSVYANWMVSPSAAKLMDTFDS

Legend:
[1] = target: T1, 70 kD GDNF receptor subunit of mouse cell lines (MN-1, TM4, SK-N-SH as printed) (mouse) (UniProt O08842); assay: cross-linking of 125I-GDNF to MN-1 cells
T1 sequence (looked up): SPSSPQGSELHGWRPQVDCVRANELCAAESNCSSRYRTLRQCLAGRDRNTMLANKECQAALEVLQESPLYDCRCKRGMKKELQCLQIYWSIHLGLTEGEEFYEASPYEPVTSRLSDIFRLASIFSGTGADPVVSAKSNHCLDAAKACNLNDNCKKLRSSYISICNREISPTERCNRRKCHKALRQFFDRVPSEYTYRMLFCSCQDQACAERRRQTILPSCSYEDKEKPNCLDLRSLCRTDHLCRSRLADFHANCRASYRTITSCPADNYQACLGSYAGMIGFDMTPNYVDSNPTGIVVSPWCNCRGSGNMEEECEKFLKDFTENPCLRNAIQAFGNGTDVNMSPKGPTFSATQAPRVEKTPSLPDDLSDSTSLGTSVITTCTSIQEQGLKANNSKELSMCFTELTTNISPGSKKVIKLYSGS

[2] = target: T2, 55 kD GDNF receptor subunit of rat cell lines (confirmed to be GDNFR-α) (rat) (UniProt Q62997); assay: affinity labeling with the cross-linker EDAC
T2 sequence (looked up): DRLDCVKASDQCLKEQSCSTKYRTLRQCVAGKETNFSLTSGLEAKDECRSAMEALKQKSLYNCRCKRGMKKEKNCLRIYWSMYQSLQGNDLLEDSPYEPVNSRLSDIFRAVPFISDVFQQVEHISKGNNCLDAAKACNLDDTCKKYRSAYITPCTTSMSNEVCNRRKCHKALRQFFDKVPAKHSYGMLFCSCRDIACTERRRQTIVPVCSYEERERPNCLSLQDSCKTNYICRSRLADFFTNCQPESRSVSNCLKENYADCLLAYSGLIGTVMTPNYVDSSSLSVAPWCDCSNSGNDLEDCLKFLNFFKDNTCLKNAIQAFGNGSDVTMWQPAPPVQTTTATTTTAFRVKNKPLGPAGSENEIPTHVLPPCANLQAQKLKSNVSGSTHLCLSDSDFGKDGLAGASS

[3] = target: T3, 70 kD GDNF receptor subunit of rat cell lines (designated GDNFR-β) (rat) (UniProt O35977); assay: affinity labeling with the cross-linker EDAC
T3 sequence: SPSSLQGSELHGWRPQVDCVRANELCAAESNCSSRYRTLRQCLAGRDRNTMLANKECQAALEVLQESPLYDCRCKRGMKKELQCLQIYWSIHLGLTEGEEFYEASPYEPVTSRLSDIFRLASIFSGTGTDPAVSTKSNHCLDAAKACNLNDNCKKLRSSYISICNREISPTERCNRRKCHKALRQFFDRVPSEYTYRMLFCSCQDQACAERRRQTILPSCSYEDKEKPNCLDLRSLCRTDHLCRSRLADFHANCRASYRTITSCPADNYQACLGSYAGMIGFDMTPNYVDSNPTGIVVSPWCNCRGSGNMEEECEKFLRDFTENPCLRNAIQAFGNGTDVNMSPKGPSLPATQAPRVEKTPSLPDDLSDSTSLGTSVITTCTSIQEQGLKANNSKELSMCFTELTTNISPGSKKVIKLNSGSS

[4] = target: mouse c-RET (product of the c-ret proto-oncogene) (mouse) (UniProt P35546); assay: EDAC cross-linking of 125I-GDNF to MN-1 cells
[5] = target: T2, 55 kD GDNF receptor subunit of rat cell lines (confirmed to be GDNFR-α) (rat); assay: EDAC cross-linking to RN33B cells, SDS/PAGE side by side
[6] = target: T3, 70 kD GDNF receptor subunit of rat cell lines (designated GDNFR-β) (rat); assay: as above
[7] = target: T4, 55 kD GDNF receptor subunit of mouse Sertoli TM4 cells (mouse) (UniProt P97785); assay: DSS cross-linking of 125I-GDNF to mouse Sertoli TM4 cells
T4 sequence (looked up): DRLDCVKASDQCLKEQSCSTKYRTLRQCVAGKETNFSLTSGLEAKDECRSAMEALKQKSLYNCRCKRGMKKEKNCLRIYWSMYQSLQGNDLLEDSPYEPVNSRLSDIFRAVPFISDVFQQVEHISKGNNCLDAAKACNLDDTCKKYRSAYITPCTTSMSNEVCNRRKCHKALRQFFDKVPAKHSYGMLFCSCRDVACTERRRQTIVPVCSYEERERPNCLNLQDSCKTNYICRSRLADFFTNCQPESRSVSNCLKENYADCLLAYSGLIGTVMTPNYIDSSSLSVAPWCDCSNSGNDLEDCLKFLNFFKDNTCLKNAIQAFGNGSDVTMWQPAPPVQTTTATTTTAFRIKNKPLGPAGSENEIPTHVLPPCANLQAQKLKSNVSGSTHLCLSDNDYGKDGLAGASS

[8] = target: T1, 70 kD GDNF receptor subunit of mouse cell lines (MN-1, TM4, SK-N-SH as printed) (mouse); assay: as above
[9] = target: T2, 55 kD GDNF receptor subunit of rat cell lines (confirmed to be GDNFR-α) (rat); assay: DSS cross-linking of 125I-GDNF to C6, RN33B and RN46A cells
[10] = target: T3, 70 kD GDNF receptor subunit of rat cell lines (designated GDNFR-β) (rat); assay: as above
[11] = target: mouse c-RET (product of the c-ret proto-oncogene) (mouse) (UniProt P35546); assay: cross-linking of 125I-GDNF to MN-1 cells, anti-c-RET immunoprecipitation
[12] = target: mouse c-RET (product of the c-ret proto-oncogene) (mouse) (UniProt P35546); assay: EDAC cross-linking of 125I-GDNF to MN-1 cells, anti-c-RET immunoprecipitation
[13] = target: T2, 55 kD GDNF receptor subunit of rat cell lines (confirmed to be GDNFR-α) (rat); assay: affinity labeling: 125I-GDNF cross-linked to C6 cells, SDS/PAGE, autoradiography
[14] = target: T3, 70 kD GDNF receptor subunit of rat cell lines (designated GDNFR-β) (rat); assay: as above
[15] = target: T4, 55 kD GDNF receptor subunit of mouse Sertoli TM4 cells (mouse); assay: affinity labeling: 125I-GDNF cross-linked to TM4 cells, SDS/PAGE, autoradiography
[16] = target: T1, 70 kD GDNF receptor subunit of mouse cell lines (MN-1, TM4, SK-N-SH as printed) (mouse); assay: as above
[17] = target: T1, 70 kD GDNF receptor subunit of mouse cell lines (MN-1, TM4, SK-N-SH as printed) (mouse); assay: affinity labeling: 125I-GDNF cross-linked to MN-1 cells, SDS/PAGE, autoradiography
[18] = target: mouse c-RET (product of the c-ret proto-oncogene) (mouse) (UniProt P35546); assay: as above
[19] = target: T2, 55 kD GDNF receptor subunit of rat cell lines (confirmed to be GDNFR-α) (rat); assay: affinity labeling: 125I-GDNF cross-linked to RN33B cells, SDS/PAGE, autoradiography
[20] = target: T3, 70 kD GDNF receptor subunit of rat cell lines (designated GDNFR-β) (rat); assay: as above
[21] = target: T2, 55 kD GDNF receptor subunit of rat cell lines (confirmed to be GDNFR-α) (rat); assay: affinity labeling: 125I-GDNF cross-linked to RN46A cells, SDS/PAGE, autoradiography
[22] = target: T3, 70 kD GDNF receptor subunit of rat cell lines (designated GDNFR-β) (rat); assay: as above
[23] = target: T1, 70 kD GDNF receptor subunit of mouse cell lines (MN-1, TM4, SK-N-SH as printed) (mouse); assay: affinity labeling: 125I-GDNF cross-linked to SK-N-SH cells, SDS/PAGE, autoradiography
[24] = target: T1, 70 kD GDNF receptor subunit of mouse cell lines (MN-1, TM4, SK-N-SH as printed) (mouse); assay: displacement of 125I-GDNF by increasing cold GDNF on MN-1 cells, cross-linking, SDS-PAGE, band of the subunit cut out and counted
[25] = target: mouse c-RET (product of the c-ret proto-oncogene) (mouse) (UniProt P35546); assay: as above
[26] = target: T2, 55 kD GDNF receptor subunit of rat cell lines (confirmed to be GDNFR-α) (rat); assay: displacement of 125I-GDNF by increasing cold GDNF on RN33B cells, cross-linking, SDS-PAGE, band of the subunit cut out and counted
[27] = target: T3, 70 kD GDNF receptor subunit of rat cell lines (designated GDNFR-β) (rat); assay: as above

Measured: binding

B1: recombinant rat GDNF produced in Sf21 insect cells using a baculovirus expression system (ligand, UniProt Q07731 78-211, looked up)
chain: SPDKQAAALPRRERNRQAAAASPENSRGKGRRGQRGKNRGCVLTAIHLNVTDLGLGYETKEELIFRYCSGSCEAAETMYDKILKNLSRSRRLTSDKVGQACCRPVAFDDDLSFLDDSLVYHILRKHSAKRCGCI
modifications: labeled with Na-^125I by the chloramine-T method where used as tracer
binds: all assays above
